Test results from patent publication EP0950418A2, “Composition for preventing or treating ischemic disease” (Takeda Chemical Industries, Ltd., priority 1998, dated 1999).
At least one peptide structure holds a part that was inferred or is arguable (an end, a ring closure or a residue). Non-standard residues stand in square brackets, D forms with d. Residues, ends and D or L forms follow the SMILES beside them. *: point of attachment. Piperazinyl(4-Ph) = c1ccc(N2CCN(*)CC2)cc1; dGly(2-thienyl) = N[C@@H](C(=O)O)c1cccs1

Assays:
[1] = system: lethal arrhythmia; assay: Lethal arrhythmia induced by coronary artery occlusion for 5 minutes with reperfusion; type: in vivo, Male Wistar rats
[2] = system: myocardial infarct size; assay: Rat acute myocardial infarction model (extension of myocardial infarct size); type: in vivo; conditions: 1 mg/kg, i.v.
[3] = premature ventricular complex, drug in saline via femoral vein 5 minutes before coronary artery occlusion
[4] = ventricular tachycardia, drug in saline via femoral vein 5 minutes before coronary artery occlusion

Q: For `CC(C)C[C@@H]1NC(=O)[C@@H](c2cccs2)NC(=O)[C@H](CC(=O)O)NC(=O)[C@H](CC(=O)N2CCN(c3ccccc3)CC2)NC(=O)[C@@H](CC(=O)O)NC(=O)[C@@H](Cc2c[nH]c3ccccc23)NC1=O` [Compound A, Cyclo[-D-Asp-Asp(R1)-Asp-D-Thg(2)-Leu-D-Trp-]] (cyclo(D(Piperazinyl(4-Ph))D[dGly(2-thienyl)]L[dW][dD])), which “PVC D (duration)” value [1, 3] is on record?
A: 51.4 ± 8.5 s

Q: And the “PVC N (number of PVCs)” value [1, 3]?
A: 33.4±10.1 time

Q: And the “inhibitory effects on lethal arrhythmia” value ([1]; summary in words of the arrhythmia table)?
A: did not show inhibitory effects on lethal arrhythmia

Q: And the “VT D (duration)” value [1, 4]?
A: 66.8 ± 36.4 s

Q: And the “VT F (frequency)” value [1, 4]?
A: 7.6±1.2 time

Q: And the infarct size/area-at-risk ([2]; Post-treatment, 10 minutes before reperfusion started)?
A: 40±2 %

Q: What about the infarct size/area-at-risk ([2]; Pre-treatment, 10 minutes before coronary occlusion) of the same molecule?
A: 41±3 %
